Patent US20030194372A1, “Radioimaging probes and the use thereof” (priority 2000, published 2003)

Test system: human LDL
Assay: Drug loading into human LDL with or without insect lipid transfer protein (iLTP)
Details: for Drug loading into human LDL, No LTP: incubated 4 hrs at 37° C. in the absence of iLTP; for Drug loading into human LDL, LTP added: incubated 4 hrs at 37° C. in the presence of purified iLTP
Description: iLTP was isolated and purified according following the previously published protocol [Ryan, J. Lipid Res., 31:1725-739 (1990); Liu and Ryan, Biochim Biophys. Acta, 1085:112-118 (1991)].
A typical experiment involved dissolving the drug in an appropriate solvent. After the removal of the solvent under nitrogen, a small quantity of wetting agent was added. An appropriate amount of LDL was then added, based on optimum drug: LDL ratio (for example, 1:1 for Dox) to enhance drug entrapment into LDL. The mixtures were then incubated for 4 hrs at 37° C. in the absence or presence of purified iLTP (typically 20-30 mg of iLTP protein/mg of LDL). After incubation, the mixtures were centrifuged at a density in which the LDL/drug complex floated to the top of the centrifuge tube, while the unbound drug and iLTP remained at the bottom of the tube. The LDL/drug fractions were collected and dialyzed to remove any trace of free drugs remaining. The cholesterol was assayed enzymatically using a commercially available kit (Sigma Chemical Company). The amount of drug associated with LDL was determined by HPLC for Dox, CI, mp-TdR, do-IUdR, by gamma counter for the radiolabeled ^1251-CI, or by liquid scintillation counting for ^3H-mp-TdR.

| Structure (SMILES) | Drug loading into human LDL, No LTP [mole drug/mole LDL] | Drug loading into human LDL, LTP added [mole drug/mole LDL] |
| --- | --- | --- |
| COc1cccc2c1C(=O)c1c(O)c3c(c(O)c1C2=O)C[C@@](O)(C(=O)CO)C[C@@H]3O[C@H]1C[C@H](N)[C@H](O)[C@H](C)O1 [DOX, Doxorubicin] | 11.9 | 54 |
| CCCCCCCCCCCCCCCC(=O)C(O)[C@H]1O[C@@H](n2cc(I)c(=O)[nH]c2=O)C[C@@]1(O)C(=O)CCCCCCCCCCCCCCC (some centres unmarked) [dp-IudR, 3′,5′-dipalmitoyl-5-iodo-deoxyuridine] | 100 | 425 |
| [3H]Cc1cn(C2CC(OC(=O)CCCCCCCCCCCCCCC)C(CO)O2)c(=O)[nH]c1=O (centres unmarked) [mp-TdR, 3′-palmitoyl-[methyl-^3H]-2′-deoxythymidine] | 85 | 238 |
| CCC(Cc1c(I)cc(I)c(N)c1I)C(=O)O[C@H]1CC[C@@]2(C)C(=CC[C@H]3[C@@H]4CC[C@H]([C@H](C)CCCC(C)C)[C@@]4(C)CC[C@@H]32)C1 (some centres unmarked) [CI, cholesteryl iopanoate] | 36.7 | 143.4 |
